This data set deals with Nb.BssSI nicking endonuclease. Nature of the data set: enzyme reaction in vitro. The conditions noted are these: nick initiating T7 replisome SDA; 10 mM Mg acetate, 37 C; purified recombinant protein; protein details: New England Biolabs.

For at least one entry, the source does not settle the construct or the ends of the probe.

On to “CACGAG (double strand) [BssSI recognition site in lambda DNA]”, for which the “activity on this sequence” value is listed as “active”.

Source of the values: US20240376531.
